These are yes or no findings as the source states them, for the method shown. In cells and extracts the contact can be indirect. Binding calls can cover weak binding; strength is not graded here.
Key:
Test in all cases: co-IP; postnuclear membrane fractions of FLAG-tagged POUV-protein-rescued ZHBTc4 ESC lines grown in self-renewing conditions; precipitated with either E-cadherin or FLAG tag antibody, IgG control; immunoblot; conditions designed to detect interactions between membrane proteins
[1] = target: FLAG-tagged Xlpou25 (Xenopus laevis)
[2] = target: FLAG-tagged Xlpou91 (Xenopus laevis)
[3] = target: E-cadherin (mouse (endogenous in ZHBTc4 ESCs))

Measured: binding

B1: p120-catenin (protein, UniProt P30999 1-938)
chain: MDDSEVESTASILASVKEQEAQFEKLTRALEEERRHVSAQLERVRVSPQDANSLMANGTLTRRHQNGRFVGDADLERQKFSDLKLNGPQDHNHLLYSTIPRMQEPGQIVETYTEEDPEGAMSVVSVETTDDGTTRRTETTVKKVVKTMTTRTVQPVPMGPDGLPVDASAVSNNYIQTLGRDFRKNGNGGPGPYVGQAGTATLPRNFHYPPDGYGRHYEDGYPGGSDNYGSLSRVTRIEERYRPSMEGYRAPSRQDVYGPQPQVRVGGSSVDLHRFHPEPYGLEDDQRSMGYDDLDYGMMSDYGTARRTGTPSDPRRRLRSYEDMIGEEVPPDQYYWAPLAQHERGSLASLDSLRKGMPPPSNWRQPELPEVIAMLGFRLDAVKSNAAAYLQHLCYRNDKVKTDVRKLKGIPILVGLLDHPKKEVHLGACGALKNISFGRDQDNKIAIKNCDGVPALVRLLRKARDMDLTEVITGTLWNLSSHDSIKMEIVDHALHALTDEVIIPHSGWEREPNEDCKPRHIEWESVLTNTAGCLRNVSSERSEARRKLRECDGLVDALIFIVQAEIGQKDSDSKLVENCVCLLRNLSYQVHREIPQAERYQEALPTVANSTGPHAASCFGAKKGKDEWFSRGKKPTEDPANDTVDFPKRTSPARGYELLFQPEVVRIYISLLKESKTPAILEASAGAIQNLCAGRWTYGRYIRSALRQEKALSAIAELLTSEHERVVKAASGALRNLAVDARNKELIGKHAIPNLVKNLPGGQQNSSWNFSEDTVVSILNTINEVIAENLEAAKKLRETQGIEKLVLINKSGNRSEKEVRAAALVLQTIWGYKELRKPLEKEGWKKSDFQVNLNNASRSQSSHSYDDSTLPLIDRNQKSDKKPDREEIPMSNMGSNTKSLDNNYSTLNERGDHNRTLDRSGDLGDMEPLKGAPLMQKI
binds: [1] | [2] | [3]

— PMC4228055
